Source: article PMC7819943, “Rice protein-binding microarrays: a tool to detect cis-acting elements near promoter regions in rice”
The other results are listed elsewhere or left out.

Protein sequences, listed by entry. Tags and fused reporters are not part of them.
UniProt Q0JBA9, entry or part of it: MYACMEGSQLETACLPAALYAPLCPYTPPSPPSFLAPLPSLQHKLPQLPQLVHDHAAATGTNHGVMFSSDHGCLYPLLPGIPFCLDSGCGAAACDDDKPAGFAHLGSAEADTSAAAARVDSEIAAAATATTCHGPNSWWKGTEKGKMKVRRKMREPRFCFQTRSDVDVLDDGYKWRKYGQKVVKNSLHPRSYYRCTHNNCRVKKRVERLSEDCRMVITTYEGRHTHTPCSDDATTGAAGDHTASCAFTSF

Biological target: OsWRKY34 (Oryza sativa, UniProt Q0JBA9 1-250)
Assay: protein-binding microarray (RPBM); PBS, 2% BSA, 51.3 ng/ul salmon testes DNA, 50 uM zinc acetate, 200 nM TF, 25 C, 1 h; high values mean tight binding
Conditions: protein: recombinant; tags: N-terminal polyhistidine and DsRed monomer fusion (pET32a); label: CyDye5-dUTP incorporated in the synthesized complementary strand; 3' TTTTT single-stranded linker to array surface; dsDNA, one strand shown
In short: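 In PBS with 2% BSA, salmon testes DNA and 50 µM zinc acetate, 200 nM protein was incubated on a custom Agilent array at 25 °C for 1 h and then washed off. The array had been made double-stranded by primer extension with Cy5-dUTP and blocked with 2% BSA. The proteins were transcription factors fused N-terminally to polyhistidine and DsRed, expressed in E. coli BL21-CodonPlus and purified on Ni–NTA. The binding signal is per-feature fluorescence intensity (arbitrary units) from an Axon 4000B scanner.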

| Sequence | binding signal |
| --- | --- |
| ATGTTTTCTTTTTGTTCTTTTCATAATTTATGTTAATACACGGAGTCACCTAGTGCAG | 8310 fluorescence intensity (a.u.) |
| GTCACTCAACTCCCAAAGTCCAAAGTCTCCTAGCTATATACGGAGTCACCTAGTGCAG | 8110 fluorescence intensity (a.u.) |
| ATCTATCTCTTCCCATGCATTTTTCACCTACTAGCTAGTACGGAGTCACCTAGTGCAG | 9210 fluorescence intensity (a.u.) |
| TAAATTCATCGTCGGCTCACTCTCTCTCTTTCCTACCCTCCGGAGTCACCTAGTGCAG | 8960 fluorescence intensity (a.u.) |
| GCCTAAGTTTATCTCATTTCTATGCTTAATTATCAAAACACGGAGTCACCTAGTGCAG | 8530 fluorescence intensity (a.u.) |
| GGTGTTATCTCTTTCTTTAGTTTGTTATTCTAAGTAGTTTCGGAGTCACCTAGTGCAG | 11100 fluorescence intensity (a.u.) |
| TTGGTGACTAAGCAGCTAGCTCATATTCCGTTTCAGCTTCCGGAGTCACCTAGTGCAG | 9770 fluorescence intensity (a.u.) |
| CATTAATCACCCTTCATCATTAATTAATTTTCCTCGACAACGGAGTCACCTAGTGCAG | 9180 fluorescence intensity (a.u.) |
| CTTGTTTGTTGTTCTACTTAGGGCCTGTTTTGCAGGGTTTCGGAGTCACCTAGTGCAG | 10700 fluorescence intensity (a.u.) |
| CAGCAGAACTCACTCACAGTCTCAGTCTCAGTCTCACTGCCGGAGTCACCTAGTGCAG | 9710 fluorescence intensity (a.u.) |
| TTATGATGTTGGACAGCGCCTCCTGCTCCGCCCACTCACCCGGAGTCACCTAGTGCAG | 8670 fluorescence intensity (a.u.) |
| GAACATGTGAGTCCCACCATATATTATTTATTGTTTTTTACGGAGTCACCTAGTGCAG | 8220 fluorescence intensity (a.u.) |
| CGCGCCGTCGTCCAGCCACCGTCACGCCGCGCGGGGCGCCCGGAGTCACCTAGTGCAG | 10200 fluorescence intensity (a.u.) |
| AGATGGACTAGATACGGTGTGGTTGTAATCTATAGGGGTCCGGAGTCACCTAGTGCAG | 8560 fluorescence intensity (a.u.) |
| CCACTCCACTGCGGGGCCCGCACCCTCGCATGCCCGCCTCCGGAGTCACCTAGTGCAG | 8470 fluorescence intensity (a.u.) |
| GACCAGCTGGTGTACATATGTGTTCAAGTGTTGACCATACCGGAGTCACCTAGTGCAG | 9050 fluorescence intensity (a.u.) |
| TTTCATGTCGCTCCTTGTCGTTGCTGCTCTTTGGGTGCAACGGAGTCACCTAGTGCAG | 11100 fluorescence intensity (a.u.) |
| GTCTGTAGATGGTGGTTGGCCTGATCGATCTCCTGATATTCGGAGTCACCTAGTGCAG | 9530 fluorescence intensity (a.u.) |
| AAGAAGGAGAGGGGAGGGGCTGACGGGTGGGATCACGTCGCGGAGTCACCTAGTGCAG | 13800 fluorescence intensity (a.u.) |
| CGTCCAGCCGCCCGAATGCCCGATCCACCTCGTCCATAGCCGGAGTCACCTAGTGCAG | 9800 fluorescence intensity (a.u.) |
| CTCGTCTCTGCTGTGTTCTGTCTGTTGTGCTTAAGGAGAGCGGAGTCACCTAGTGCAG | 8370 fluorescence intensity (a.u.) |

As entered above:
In binding signal, GAACATGTGAGTCCCACCATATATTATTTATTGTTTTTTACGGAGTCACCTAGTGCAG is listed with 8220 fluorescence intensity (a.u.)
In binding signal, GCCTAAGTTTATCTCATTTCTATGCTTAATTATCAAAACACGGAGTCACCTAGTGCAG is listed with 8530 fluorescence intensity (a.u.)

Next records follow.

| Sequence | binding signal |
| --- | --- |
| TCTTCTGAGTTCTTGTGTTTTCATACGTGCCAATCAAATGCGGAGTCACCTAGTGCAG | 8310 fluorescence intensity (a.u.) |
| AAAATCAACCCAGCCCAGTGTCACCGCGTACGTCACATTTCGGAGTCACCTAGTGCAG | 8700 fluorescence intensity (a.u.) |
| GTGAGGTGGGGTGGTGTGGCTTCTGCTGCTGCTGCTACTGCGGAGTCACCTAGTGCAG | 15100 fluorescence intensity (a.u.) |
| ACTTCCAACTTTTCCGTCACATCGTTCCAATTTCAACCAACGGAGTCACCTAGTGCAG | 8500 fluorescence intensity (a.u.) |
| ATGTGGTTCAACTGAATTTTCCATGCCCTATGTTAAGTCTCGGAGTCACCTAGTGCAG | 8970 fluorescence intensity (a.u.) |
| TAATGGGATGGGTGAAAAGTTATTGTTTTTGGTAGGCCTTCGGAGTCACCTAGTGCAG | 9640 fluorescence intensity (a.u.) |
| ACACATCACCCTTTAAAACTTAACCATTGGATCATTTTTGCGGAGTCACCTAGTGCAG | 9380 fluorescence intensity (a.u.) |
| AGATGGTGGGAGTAACATGTCTTTTTTTTTTTACATTGGACGGAGTCACCTAGTGCAG | 9970 fluorescence intensity (a.u.) |
| GAGTAGTAGGACCTAGATCTATAAATACCAGCTTTCCAACCGGAGTCACCTAGTGCAG | 8360 fluorescence intensity (a.u.) |
| ATAGTTAAAAGCACCGCCAATCTGTCGTCGCCGCGCCGGCCGGAGTCACCTAGTGCAG | 8840 fluorescence intensity (a.u.) |
| AAGTCTTCTTTCATCTCACCACGTCACTTTTGGTCCATAGCGGAGTCACCTAGTGCAG | 8500 fluorescence intensity (a.u.) |
| CAACCACCACCGCCTGAGCCGCCGCCGCCGCCGCCCGAGGCGGAGTCACCTAGTGCAG | 12900 fluorescence intensity (a.u.) |
| ATTCTAGGGACAATTGCTTATTTAACTATGTTTCAAACCACGGAGTCACCTAGTGCAG | 8350 fluorescence intensity (a.u.) |
| GAATTGTTGACCACGTGTTTCTGTTTGGACTCCTTTTTTTCGGAGTCACCTAGTGCAG | 16400 fluorescence intensity (a.u.) |
| CGGCTTCTCCCCTCCGCCGCCTCCTCTCCTAGCCTTCCCCCGGAGTCACCTAGTGCAG | 10700 fluorescence intensity (a.u.) |
| TATATATATACACACCCGCTTGTTCATTTGTTCTTCCTGCCGGAGTCACCTAGTGCAG | 9470 fluorescence intensity (a.u.) |
| TTCGTCCATCCCACACAGTTAAATACACTGTTCATCCTATCGGAGTCACCTAGTGCAG | 11000 fluorescence intensity (a.u.) |
| AACTATTTCTCATTTTATCTTCTCCAAATACAAATATCCCCGGAGTCACCTAGTGCAG | 8250 fluorescence intensity (a.u.) |
| CTAACATGTTATATGCTCAATTGGTTGGTCGAGGTTGATCCGGAGTCACCTAGTGCAG | 8390 fluorescence intensity (a.u.) |
| GATTGAGTGTGCCCGTGTGAGATAGAATCTTTTTGCCCTTCGGAGTCACCTAGTGCAG | 8930 fluorescence intensity (a.u.) |
| TGTTTCTCAGTTGGGTATCTATGCAATCCAATTACCAATCCGGAGTCACCTAGTGCAG | 9300 fluorescence intensity (a.u.) |
